Experimental data from patent publication US12152016B2, “Aryl hydrocarbon receptor modulators and uses thereof” (Beth Israel Deaconess Medical Center, Inc., priority 2018, dated 2024).
Entries after “also recorded” stand apart in the source; their conditions may differ. At least one structure is not confirmed: it was looked up by name or label, or the drawing left a doubt.

Legend:
[1] = target: T1, aryl hydrocarbon receptor (AHR) (Mus musculus, UniProt P30561); experiment: XRE-driven luciferase reporter assay, mouse Hepa1c1c7; format: cell-based
T1 construct: Transfection was performed with 150 ng XRE-luciferase plasmid (Promega); endogenous in cells; host or cells: Hepa-1c1c7 (mouse hepatoma cell line)

[2] = target: T2, AhR (Mus musculus, UniProt P30561); experiment: AhR nuclear translocation assay, mouse Hepa-1c1c7; format: cell-based; conditions: mouse Hepa-1c1c7, 10 μM, 90 minutes
T2 construct: endogenous in cells; host or cells: Hepa-1c1c7 (mouse hepatoma cell line)
Procedure: (§1) Mouse Hepa-1c1c7 or human HepG2 cells were seeded in 8 well chamber slides followed by 24 hours incubation in tryptophan deficient media (HBSS with Ca^2+ and Mg^2+, 10% heat inactivated FBS, 1× non-essential amino acids, 1× sodium pyruvate, 4.5 g/L glucose). Cells were treated with vehicle control (DMSO) or 10 μM ITE, compound 108, or compound 109 for 90 minutes in tryptophan deficient media. Following treatment, cells were fixed in 4% formaldehyde and processed according to standard immunofluorescence staining protocol. Primary anti-AhR antibody was applied at 1:100 dilution (Enzo, BML-SA210) and Alexa488 conjugated secondary antibody was applied at 1:500 dilution (Cell Signaling, 4412S). Actin was stained using Alexa 568 conjugated Phalloidin (Fisher). Samples were mounted in anti-fade mounting medium supplemented with DAPI for nuclear staining and imaged with confocal microscopy (Leica SP5×MP, 63× oil lens).

[3] = target: T3, AhR (Homo sapiens, UniProt P35869); experiment: AhR nuclear translocation assay, human HepG2; format: cell-based; conditions: human HepG2, 10 μM, 90 minutes
T3 construct: endogenous in cells; host or cells: HepG2 (human liver cancer cell line)
T3 sequence (P35869 11-848): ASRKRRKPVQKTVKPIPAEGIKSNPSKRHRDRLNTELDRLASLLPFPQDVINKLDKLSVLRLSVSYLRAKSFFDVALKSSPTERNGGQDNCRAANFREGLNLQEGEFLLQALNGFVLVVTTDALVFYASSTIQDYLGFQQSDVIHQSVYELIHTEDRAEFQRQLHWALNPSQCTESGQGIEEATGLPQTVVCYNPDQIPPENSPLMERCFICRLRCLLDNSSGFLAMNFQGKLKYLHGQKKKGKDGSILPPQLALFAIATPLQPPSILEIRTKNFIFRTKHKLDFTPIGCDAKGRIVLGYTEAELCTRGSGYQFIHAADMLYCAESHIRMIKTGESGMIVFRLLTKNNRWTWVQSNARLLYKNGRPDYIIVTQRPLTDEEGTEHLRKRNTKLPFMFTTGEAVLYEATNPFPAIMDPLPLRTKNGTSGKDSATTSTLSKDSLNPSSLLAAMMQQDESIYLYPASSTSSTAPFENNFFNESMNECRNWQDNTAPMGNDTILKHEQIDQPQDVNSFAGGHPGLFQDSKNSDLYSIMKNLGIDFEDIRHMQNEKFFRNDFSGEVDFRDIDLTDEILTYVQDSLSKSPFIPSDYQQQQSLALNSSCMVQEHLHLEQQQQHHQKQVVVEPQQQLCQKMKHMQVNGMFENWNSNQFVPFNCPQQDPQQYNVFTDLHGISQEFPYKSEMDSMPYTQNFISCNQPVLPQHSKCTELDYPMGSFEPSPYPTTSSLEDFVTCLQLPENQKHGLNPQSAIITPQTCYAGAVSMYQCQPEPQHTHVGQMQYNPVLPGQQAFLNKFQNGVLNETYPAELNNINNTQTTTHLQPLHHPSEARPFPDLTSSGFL
Procedure: as §1

[4] = tested on: DSS induced colitis; experiment: DSS induced colitis in mice; format: in vivo, C57BL/6 mice
Procedure: C57BL/6 (8-10 week, male) mice were administered drinking water supplemented with 3% (wt/vol) dextran sodium sulfate (DSS; MP Biomedicals) for 7 days followed by a 13 day recovery period with unsupplemented drinking water. Compound 109 or compound 108 were suspended in vehicle (1% HPMC and 1% polysorbate 80 in water) and given daily by oral gavage (1 ug/mouse in 100 uL), starting at day 0. Control mice were administered 100 μL vehicle. Body weight and disease activity index (DAI) were recorded daily. DAI was determined by combining scores of weight loss, stool consistency, blood in stool, activity, and appearance.^1 Scores were determined as follows: change in weight (0: <1%, 1: 1-10%, 2: 10-18%, 3: 18-20%); stool consistency (0: normal, 1: loose stools, 2: diarrhea); stool blood (0: negative, 1: trace blood, 2: bloody stool, 3: gross bleeding), activity (0: normal, 1: low activity, 2: hiding, 3: no response to gentle stimuli) and appearance (0: normal, 1: rigor, 2: hunched posture). On day 7 and day 11, mice were euthanized and colon were removed for length measurement, histology, RNA isolation, and lamina propria mononuclear cell (LPMC) extraction as detailed below.
Dissected colon were cut longitudinally and rolled using the Swiss roll method with the distal side in the center.^2,3 Colons were fixed overnight in 10% neutral buffered formalin, processed for paraffin embedding and sectioned at 5 μm thickness. To visualize and quantify the inflammatory response and crypt loss, hematoxylin and eosin staining (H&E) was performed. Briefly, sections were cleared with xylene, rehydrated through alcohol gradient, stained by hematoxylin, washed by acid and ammonium alcohol, rinsed in water and exposed to Eosin followed by dehydrating through graded alcohols and cleared in xylene. All sections were mounted using Permount (Fisher Scientific) and visualized using a BX41 microscope (Olympus). For histological scoring, 3 transverse sections of Swiss roll were chosen and 9 (100×) images were captured for each section. Images were analyzed for inflammation and crypt structure and scored by a blind observer as follows: inflammation (0: rare inflammatory cells in the lamina propria; 1: increased numbers of inflammatory cells in the lamina propria; 2: confluence of inflammatory cells extending in to the submucosa; 3: transmural extension of the inflammatory infiltrate.); crypt loss (0: none; 1: basal 1/3 damaged; 2: basal 2/3 damaged; 3: only surface epithelium intact; 4: entire crypt and epithelium lost). Inflammation and crypt loss were scored separately and multiplied by a factor of 1-4 to adjust for impacted area of tissue section (1: 0-25%; 2: 25.1-50% affected; 3: 50.1-75% affected; 4: >75% affected).^1,4 To examine goblet cell number, sections were stained by a commercial periodic acid-Schiff (PAS) and Alcian blue kit (Fisher Scientific). For quantification, 3 transverse sections of Swiss roll were chosen per colon and 5 random images at 200x were taken per section in the distal region of the colon. Goblet cell number was counted per image and normalized to colon length by a blind observer using image J.^5
Colonic epithelium and lamina propria cells were isolated as previously described.^6,7 Briefly, colons were dissected and washed with HBSS to remove fecal contents. Colon were opened longitudinally and cut into 2 cm segments. Epithelium was isolated by incubation at 37° C. in RPMI medium supplemented with 5 mM EDTA and 1 mM DTT for 15 minutes with constant shaking. Crypt enriched supernatants were combined and allowed to sediment at 37° C. for 15 minutes. Settled crypts were washed once in HBSS and lysed in TRIzol for RNA isolation and q-PCR analysis of epithelial barrier gene expression. The remaining colon fragments were minced into 1 mm pieces and digested in RPMI medium containing 1 mg/ml collagenase (Sigma), 0.1 mg/ml DNase I (Sigma) at 37° C. under constant shaking for 45 minutes. […]

[5] = tested on: IL-22 production; experiment: In vitro induction of IL-22 in primary lymphocytes; format: cell-based, C57BL/6 mice
[6] = target: T4, aryl hydrocarbon receptor (AHR) (Homo sapiens, UniProt P35869); experiment: XRE-driven luciferase reporter assay, human HepG2; conditions: fold over vehicle
T4 sequence (P35869 11-848): T3 sequence (P35869 11-848)

[7] = colon epithelial fraction, day 7 and 11

Structure (SMILES): O=C(c1cccc(C(F)(F)F)n1)c1c[nH]c2ccccc12 [Compound 109, 1H-indol-3-yl-[6-(trifluoromethyl)-2-pyridyl]methanone]
- XRE luciferase Emax (fold) [1]: 92 fold
- AhR nuclear translocation [2]: localized in the nucleus; also recorded: rapid nuclear enrichment of AhR
- AhR nuclear translocation [3]: localized in the nucleus; also recorded: rapid nuclear enrichment of AhR
- induction of Foxp3 ([4]; 1 μg/day PO): not observed
- colon IL-22 expression ([4]; 1 μg/day PO, day 7): trend toward increased expression
- colon AhR expression ([4]; 1 μg/day PO, day 7 and 11): no significant difference; also recorded: consistent between groups
- colon cyp1a1 expression ([4]; 1 μg/day PO, day 7 and 11): significantly induced; also recorded: significantly increased
- colon inflammation and crypt loss (H&E, blind scoring) ([4]; 1 μg/day PO, day 11): significant improvement in both colon inflammation and crypt loss
- colon length ([4]; 1 μg/day PO, day 11): significantly improved
- goblet cell number ([4]; 1 μg/day PO, day 11): preserved goblet cell number
- DSS induced colitis, overall effect ([4]; 3% DSS 7 days + 13 days recovery, 1 μg daily by oral gavage): attenuates DSS induced colitis
- overall disease score ([4]; 3% DSS, 1 μg/day PO): improved the overall disease score
- survival ([4]; 3% DSS, 1 μg/day PO): significantly improved survival
- weight loss ([4]; 3% DSS, 1 μg/day PO): reduced weight loss
- antimicrobial peptides S100A8 and RegIIIγ expression [4, 7]: Significant upregulation
- barrier protective genes Muc1, Muc3, Bcl21 expression [4, 7]: moderate differences in expression; also recorded: Modest regulation
- IL-22 secretion from CD3+CD4+ T helper and CD3−RORrt(+) innate lymphoid cells (flow cytometry) ([4]; colon explants, day 7 and 11): significantly elevated
- inflammatory mediators TNF-α, IFN-γ, IL-10, Foxp3 expression ([4]; whole colon, day 7 and 11): no compound 109-dependent expression of inflammatory mediators characterized in whole colon was observed
- IL-22 production in CD4+ T helper cells ([5]; cells from spleen and LPMC, polarized in vitro): Significant increase in IL-22 production
- IL-22 in CD3−RORrt(+) innate lymphoid cells ([5]; colonic lamina propria cells in vitro): upregulation of IL-22
- XRE luciferase Emax (fold) [6]: 66 fold
